According to patent publication US20250283871A1, “COMPOSITIONS AND METHODS FOR MODULATING THE INTERACTION BETWEEN SS18-SSX FUSION ONCOPROTEIN AND NUCLEOSOMES” (Dana-Farber Cancer Institute, Inc., priority 2020, published 2025):

B1: CHERP (protein, UniProt Q8IWX8 1-916, looked up)
Calcium homeostasis …: MEMPLPPDDQELRNVIDKLAQFVARNGPEFEKMTMEKQKDNPKFSFLFGGEFYSYYKCKLALEQQQLICKQQTPELEPAATMPPLPQPPLAPAAPIPPAQGAPSMDELIQQSQWNLQQQEQHLLALRQEQVTAAVAHAVEQQMQKLLEETQLDMNEFDNLLQPIIDTCTKDAISAGKNWMFSNAKSPPHCELMAGHLRNRITADGAHFELRLHLIYLINDVLHHCQRKQARELLAALQKVVVPIYCTSFLAVEEDKQQKIARLLQLWEKNGYFDDSIIQQLQSPALGLGQYQATLINEYSSVVQPVQLAFQQQIQTLKTQHEEFVTSLAQQQQQQQQQQQQLQMPQMEAEVKATPPPPAPPPAPAPAPAIPPTTQPDDSKPPIQMPGSSEYEAPGGVQDPAAAGPRGPGPHDQIPPNKPPWFDQPHPVAPWGQQQPPEQPPYPHHQGGPPHCPPWNNSHEGMWGEQRGDPGWNGQRDAPWNNQPDAAWNSQFEGPWNSQHEQPPWGGGQREPPFRMQRPPHFRGPFPPHQQHPQFNQPPHPHNFNRFPPRFMQDDFPPRHPFERPPYPHRFDYPQGDFPAEMGPPHHHPGHRMPHPGINEHPPWAGPQHPDFGPPPHGFNGQPPHMRRQGPPHINHDDPSLVPNVPYFDLPAGLMAPLVKLEDHEYKPLDPKDIRLPPPMPPSERLLAAVEAFYSPPSHDRPRNSEGWEQNGLYEFFRAKMRARRRKGQEKRNSGPSRSRSRSKSRGRSSSRSNSRSSKSSGSYSRSRSRSCSRSYSRSRSRSRSRSRSSRSRSRSQSRSRSKSYSPGRRRRSRSRSPTPPSSAGLGSNSAPPIPDSRLGEENKGHQMLVKMGWSGSGGLGAKEQGIQDPIKGGDVRDKWDQYKGVGVALDDPYENYRRNKSYSFIARMKARDECK
B2: HNRNPUL1 (protein, UniProt Q9BUJ2 1-856, looked up)
Heterogeneous nuclear …: MDVRRLKVNELREELQRRGLDTRGLKAELAERLQAALEAEEPDDERELDADDEPGRPGHINEEVETEGGSELEGTAQPPPPGLQPHAEPGGYSGPDGHYAMDNITRQNQFYDTQVIKQENESGYERRPLEMEQQQAYRPEMKTEMKQGAPTSFLPPEASQLKPDRQQFQSRKRPYEENRGRGYFEHREDRRGRSPQPPAEEDEDDFDDTLVAIDTYNCDLHFKVARDRSSGYPLTIEGFAYLWSGARASYGVRRGRVCFEMKINEEISVKHLPSTEPDPHVVRIGWSLDSCSTQLGEEPFSYGYGGTGKKSTNSRFENYGDKFAENDVIGCFADFECGNDVELSFTKNGKWMGIAFRIQKEALGGQALYPHVLVKNCAVEFNFGQRAEPYCSVLPGFTFIQHLPLSERIRGTVGPKSKAECEILMMVGLPAAGKTTWAIKHAASNPSKKYNILGTNAIMDKMRVMGLRRQRNYAGRWDVLIQQATQCLNRLIQIAARKKRNYILDQTNVYGSAQRRKMRPFEGFQRKAIVICPTDEDLKDRTIKRTDEEGKDVPDHAVLEMKANFTLPDVGDFLDEVLFIELQREEADKLVRQYNEEGRKAGPPPEKRFDNRGGGGFRGRGGGGGFQRYENRGPPGGNRGGFQNRGGGSGGGGNYRGGFNRSGGGGYSQNRWGNNNRDNNNSNNRGSYNRAPQQQPPPQQPPPPQPPPQQPPPPPSYSPARNPPGASTYNKNSNIPGSSANTSTPTVSSYSPPQPSYSQPPYNQGGYSQGYTAPPPPPPPPPAYNYGSYGGYNPAPYTPPPPPTAQTYPQPSYNQYQQYAQQWNQYYQNQGQWPPYYGNYDYGSYSGNTQGGTSTQ
B3: DDX31 (protein, UniProt Q9H8H2 1-851, looked up)
ATP-dependent DNA helicase …: MAPDLASQRHSESFPSVNSRPNVILPGREGRREGLPPGGGTRGSLVPTRPVPPSPAPLGTSPYSWSRSGPGRGGGAGSSRVPRGVPGPAVCAPGSLLHHASPTQTMAAADGSLFDNPRTFSRRPPAQASRQAKATKRKYQASSEAPPAKRRNETSFLPAKKTSVKETQRTFKGNAQKMFSPKKHSVSTSDRNQEERQCIKTSSLFKNNPDIPELHRPVVKQVQEKVFTSAAFHELGLHPHLISTINTVLKMSSMTSVQKQSIPVLLEGRDALVRSQTGSGKTLAYCIPVVQSLQAMESKIQRSDGPYALVLVPTRELALQSFDTVQKLLKPFTWIVPGVLMGGEKRKSEKARLRKGINILISTPGRLVDHIKSTKNIHFSRLRWLVFDEADRILDLGFEKDITVILNAVNAECQKRQNVLLSATLTEGVTRLADISLHDPVSISVLDKSHDQLNPKDKAVQEVCPPPAGDKLDSFAIPESLKQHVTVVPSKLRLVCLAAFILQKCKFEEDQKMVVFFSSCELVEFHYSLFLQTLLSSSGAPASGQLPSASMRLKFLRLHGGMEQEERTAVFQEFSHSRRGVLLCTDVAARGLDLPQVTWIVQYNAPSSPAEYIHRIGRTARIGCHGSSLLILAPSEAEYVNSLASHKINVSEIKMEDILCVLTRDDCFKGKRWGAQKSHAVGPQEIRERATVLQTVFEDYVHSSERRVSWAKKALQSFIQAYATYPRELKHIFHVRSLHLGHVAKSFGLRDAPRNLSALTRKKRKAHVKRPDLHKKTQSKHSLAEILRSEYSSGMEADIAKVKKQNAPGEPGGRPLQHSLQPTPCFGRGKTLKWRKTQKGVQRDSKTSQKV
B4: PHF14 (protein, UniProt O94880 1-948, looked up)
PHD finger protein 14: MDRSSKRRQVKPLAASLLEALDYDSSDDSDFKVGDASDSEGSGNGSEDASKDSGEGSCSDSEENILEEELNEDIKVKEEQLKNSAEEEVLSSEKQLIKMEKKEEEENGERPRKKKEKEKEKEKEKEKEKEREKEKEKATVSENVAASAAATTPATSPPAVNTSPSVPTTTTATEEQVSEPKKWNLRRNRPLLDFVSMEELNDMDDYDSEDDNDWRPTVVKRKGRSASQKEGSDGDNEDDEDEGSGSDEDENDEGNDEDHSSPASEGGCKKKKSKVLSRNSADDEELTNDSLTLSQSKSNEDSLILEKSQNWSSQKMDHILICCVCLGDNSEDADEIIQCDNCGITVHEGCYGVDGESDSIMSSASENSTEPWFCDACKCGVSPSCELCPNQDGIFKETDAGRWVHIVCALYVPGVAFGDIDKLRPVTLTEMNYSKYGAKECSFCEDPRFARTGVCISCDAGMCRAYFHVTCAQKEGLLSEAAAEEDIADPFFAYCKQHADRLDRKWKRKNYLALQSYCKMSLQEREKQLSPEAQARINARLQQYRAKAELARSTRPQAWVPREKLPRPLTSSASAIRKLMRKAELMGISTDIFPVDNSDTSSSVDGRRKHKQPALTADFVNYYFERNMRMIQIQENMAEQKNIKDKLENEQEKLHVEYNKLCESLEELQNLNGKLRSEGQGIWALLGRITGQKLNIPAILRAPKERKPSKKEGGTQKTSTLPAVLYSCGICKKNHDQHLLLLCDTCKLHYHLGCLDPPLTRMPRKTKNSYWQCSECDQAGSSDMEADMAMETLPDGTKRSRRQIKEPVKFVPQDVPPEPKKIPIRNTRTRGRKRSFVPEEEKHEERVPRERRQRQSVLQKKPKAEDLRTECATCKGTGDNENLVRCDECRLCYHFGCLDPPLKKSPKQTGYGWICQECDSSSSKEDENEAERKNISQELNMEQKNPKK
B5: RRP12 (protein, UniProt Q5JTH9 1-1297, looked up)
RRP12-like protein: MGRSGKLPSGVSAKLKRWKKGHSSDSNPAICRHRQAARSRFFSRPSGRSDLTVDAVKLHNELQSGSLRLGKSEAPETPMEEEAELVLTEKSSGTFLSGLSDCTNVTFSKVQRFWESNSAAHKEICAVLAAVTEVIRSQGGKETETEYFAALMTTMEAVESPESLAAVAYLLNLVLKRVPSPVLIKKFSDTSKAFMDIMSAQASSGSTSVLRWVLSCLATLLRKQDLEAWGYPVTLQVYHGLLSFTVHPKPKIRKAAQHGVCSVLKGSEFMFEKAPAHHPAAISTAKFCIQEIEKSGGSKEATTTLHMLTLLKDLLPCFPEGLVKSCSETLLRVMTLSHVLVTACAMQAFHSLFHARPGLSTLSAELNAQIITALYDYVPSENDLQPLLAWLKVMEKAHINLVRLQWDLGLGHLPRFFGTAVTCLLSPHSQVLTAATQSLKEILKECVAPHMADIGSVTSSASGPAQSVAKMFRAVEEGLTYKFHAAWSSVLQLLCVFFEACGRQAHPVMRKCLQSLCDLRLSPHFPHTAALDQAVGAAVTSMGPEVVLQAVPLEIDGSEETLDFPRSWLLPVIRDHVQETRLGFFTTYFLPLANTLKSKAMDLAQAGSTVESKIYDTLQWQMWTLLPGFCTRPTDVAISFKGLARTLGMAISERPDLRVTVCQALRTLITKGCQAEADRAEVSRFAKNFLPILFNLYGQPVAAGDTPAPRRAVLETIRTYLTITDTQLVNSLLEKASEKVLDPASSDFTRLSVLDLVVALAPCADEAAISKLYSTIRPYLESKAHGVQKKAYRVLEEVCASPQGPGALFVQSHLEDLKKTLLDSLRSTSSPAKRPRLKCLLHIVRKLSAEHKEFITALIPEVILCTKEVSVGARKNAFALLVEMGHAFLRFGSNQEEALQCYLVLIYPGLVGAVTMVSCSILALTHLLFEFKGLMGTSTVEQLLENVCLLLASRTRDVVKSALGFIKVAVTVMDVAHLAKHVQLVMEAIGKLSDDMRRHFRMKLRNLFTKFIRKFGFELVKRLLPEEYHRVLVNIRKAEARAKRHRALSQAAVEEEEEEEEEEEPAQGKGDSIEEILADSEDEEDNEEEERSRGKEQRKLARQRSRAWLKEGGGDEPLNFLDPKVAQRVLATQPGPGRGRKKDHGFKVSADGRLIIREEADGNKMEEEEGAKGEDEEMADPMEDVIIRNKKHQKLKHQKEAEEEELEIPPQYQAGGSGIHRPVAKKAMPGAEYKAKKAKGDVKKKGRPDPYAYIPLNRSKLNRRKKMKLQGQFKGLVKAARRGSQVGHKNRRKDRRP
B6: CBX2 (protein, UniProt Q14781 1-532, looked up)
Chromobox protein homolog 2: MEELSSVGEQVFAAECILSKRLRKGKLEYLVKWRGWSSKHNSWEPEENILDPRLLLAFQKKEHEKEVQNRKRGKRPRGRPRKLTAMSSCSRRSKLKEPDAPSKSKSSSSSSSSTSSSSSSDEEDDSDLDAKRGPRGRETHPVPQKKAQILVAKPELKDPIRKKRGRKPLPPEQKATRRPVSLAKVLKTARKDLGAPASKLPPPLSAPVAGLAALKAHAKEACGGPSAMATPENLASLMKGMASSPGRGGISWQSSIVHYMNRMTQSQAQAASRLALKAQATNKCGLGLDLKVRTQKGELGMSPPGSKIPKAPSGGAVEQKVGNTGGPPHTHGASRVPAGCPGPQPAPTQELSLQVLDLQSVKNGMPGVGLLARHATATKGVPATNPAPGKGTGSGLIGASGATMPTDTSKSEKLASRAVAPPTPASKRDCVKGSATPSGQESRTAPGEARKAATLPEMSAGEESSSSDSDPDSASPPSTGQNPSVSVQTSQDWKPTRSLIEHVFVTDVTANLITVTVKESPTSVGFFNLRHY

The molecules below were run on BAF complex subunits and histone proteins (assay: Mass spectrometry proteomics of purified HA-SS18 WT and HA-SS18-SSX1 complexes (Tables 5A-5E)). Settings: HA-SS18SSX1_CHR_peptides; total peptides of the identified protein.
Design: species or system human

| Molecule | Total |
| --- | --- |
| B1 | 3 |
| B2 | 3 |
| B3 | 3 |
| B4 | 3 |
| B5 | 3 |
| B6 | 3 |

Same assay, conditions: HA-SS18SSX1_CHR_peptides; unique peptides of the identified protein

| Molecule | Unique |
| --- | --- |
| B1 | 3 |
| B2 | 3 |
| B3 | 3 |
| B4 | 3 |
| B5 | 3 |
| B6 | 3 |

Same assay, conditions: HA-SS18WT_CHR_peptides: HA-SS18 WT purification from nuclease-treated solubilized chromatin (CHR), HEK-293T; label = protein identified

| Molecule | Total (peptides) | Unique (peptides) |
| --- | --- | --- |
| B2 | 3 | 3 |
| B3 | 3 | 3 |
| B5 | 4 | 3 |

Same assay, conditions: HA-SS18WT_CHR_peptides: protein identified in HA-SS18 WT BAF complex purification from nuclease-treated solubilized chromatin (CHR), HEK-293T

| Molecule | Total (total peptides) | Unique (unique peptides) |
| --- | --- | --- |
| B4 | 1 | 1 |
| B6 | 2 | 2 |

Same assay, conditions: HA-SS18WT_NE_peptides: proteins co-purified with HA-SS18 WT from nuclear extract (NE), HEK-293T

| Molecule | Total (peptides) | Unique (peptides) |
| --- | --- | --- |
| B3 | 2 | 2 |
